# From patent publication US20250194601A1, “PYRIDAZINONE COMPOUND OR SALT THEREOF AND PEST CONTROL AGENT CONTAINING IT” (ISHIHARA SANGYO KAISHA, LTD., priority 2022, published 2025)
# Some results were stated once for a whole list of compounds, not compound by compound.
# Test system: two-spotted spider mite (Tetranychus urticae)
# Assay: Test Example 3: effects against two-spotted spider mite, kidney bean leaf dip
# Type: in vivo
# Conditions: 200 ppm, adults, 3rd day after the application
# Procedure: Test on effects against two-spotted spider mite (Tetranychus urticae) In a chemical solution of a test compound at a concentration of 800 ppm, 200 ppm or 50 ppm, a leaf of kidney bean on which about 20 adults of two-spotted spider mite had been released, was dipped. After the chemical solution dried in air, the leaf was left in a constant temperature chamber with lighting at 25° C. On the 3rd day after the application, the number of dead adults was counted, and the mortality (%) was calculated by the following formula. Adults that dropped from the leaf or adults that were moribund were counted as dead adults.
row,Compound,mortality [%]
1,CCc1nn(-c2ccc(C(F)(F)F)cc2)c(=O)c(-n2ccc(C(F)(F)F)n2)c1O [2-6],≥ 80
2,CCc1nn(-c2ccc(C(F)(F)F)cc2I)c(=O)c(-n2ccc(C(F)(F)F)n2)c1O [2-20],≥ 80
3,C#Cc1cc(C(F)(F)F)ccc1-n1nc(CC)c(O)c(-n2ccc(C(F)(F)F)n2)c1=O [2-42],≥ 80
4,CCc1nn(-c2ccc(Cl)c(C(F)(F)F)c2)c(=O)c(-n2ccc(C(F)(F)F)n2)c1O [2-71],≥ 80
5,CCc1nn(-c2c(Cl)cc(OC(F)(F)F)cc2Cl)c(=O)c(-n2cc(Cl)c(C(F)(F)F)n2)c1O [2-73],≥ 80

# Same assay, conditions: 800 ppm, adults, 3rd day after the application
row,Compound,mortality [%]
1,CCc1nn(-c2ncc(C(F)(F)F)cc2[N+](=O)[O-])c(=O)c(-n2ccc(C(F)(F)F)n2)c1O [1-6],≥ 80
2,CCc1nn(-c2ncc(C(F)(F)F)cc2C(C)C)c(=O)c(-n2ccc(C(F)(F)F)n2)c1O [1-12],≥ 80
3,CCc1nn(-c2ncc([N+](=O)[O-])cc2Cl)c(=O)c(-n2ccc(C(F)(F)F)n2)c1O [1-27],≥ 80
4,CCc1nn(-c2cc(C(F)(F)F)ccn2)c(=O)c(-n2ccc(C(F)(F)F)n2)c1O [1-53],≥ 80
5,CCc1nn(-c2cccc(C(F)(F)F)n2)c(=O)c(-n2ccc(C(F)(F)F)n2)c1O [1-54],≥ 80
6,CCc1nn(-c2ncc(C(F)(F)F)cc2Cl)c(=O)c(-n2ccc(C(C)C)n2)c1O [1-96],≥ 80
7,CCc1nn(-c2ncc(C(F)(F)F)cc2Cl)c(=O)c(-n2ccc(C3OCCCO3)n2)c1O [1-104],≥ 80
8,CCc1nn(-c2ncc(C(F)(F)F)cc2Cl)c(=O)c(-n2cc(I)cn2)c1O [1-115],≥ 80
9,CCc1nn(-c2ncc(C(F)(F)F)cc2Cl)c(=O)c(-n2cc([N+](=O)[O-])c(C(F)(F)F)n2)c1O [1-131],≥ 80
10,CCc1nn(-c2ncc(C(F)(F)F)cc2Cl)c(=O)c(-n2cc(Br)c(C(F)(F)F)n2)c1O [1-138],≥ 80
11,CCc1nn(-c2ncc(C(F)(F)F)cc2Cl)c(=O)c(-n2cc(C(F)(F)F)c([N+](=O)[O-])n2)c1O [1-147],≥ 80
12,CCc1nn(-c2ncc(C(F)(F)F)cc2Cl)c(=O)c(-n2cc(I)c(Cl)n2)c1O [1-155],≥ 80
13,CCc1nn(-c2c(O)c(CC)nn(-c3ncc(C(F)(F)F)cc3Cl)c2=O)cc1Cl [1-171],≥ 80
14,CCON=Cc1nn(-c2c(O)c(CC)nn(-c3ncc(C(F)(F)F)cc3Cl)c2=O)cc1I [1-186],≥ 80
15,CCc1nn(-c2ncc(C(F)(F)F)cc2Cl)c(=O)c(-n2cc(Br)c(C#N)n2)c1O [1-189],≥ 80
16,CCc1nn(-c2ncc(C(F)(F)F)cc2Cl)c(=O)c(-n2cc(Br)c(F)n2)c1O [1-190],≥ 80
17,CCc1nn(-c2ncc(C(F)(F)F)cc2F)c(=O)c(-n2cc(Cl)cn2)c1O [1-216],≥ 80
18,CCc1nn(-c2ncc(C(F)(F)F)cc2Br)c(=O)c(-n2cc([N+](=O)[O-])c(I)n2)c1O [1-224],≥ 80
19,CCC(C)c1nn(-c2ncc(C(F)(F)F)cc2Cl)c(=O)c(-n2ccc(C(F)(F)F)n2)c1O (stereo not drawn) [1-259],≥ 80
20,O=c1c(-n2ccc(C(F)(F)F)n2)c(O)c(C2CCCCC2)nn1-c1ncc(C(F)(F)F)cc1Cl [1-264],≥ 80
21,O=c1c(-n2ccc(C(F)(F)F)n2)c(O)c(C(F)F)nn1-c1ncc(C(F)(F)F)cc1Cl [1-270],≥ 80
22,CCc1nn(-c2ccccc2C(F)(F)F)c(=O)c(-n2ccc(C(F)(F)F)n2)c1O [2-3],≥ 80
23,CCc1nn(-c2cccc(C(F)(F)F)c2)c(=O)c(-n2ccc(C(F)(F)F)n2)c1O [2-4],≥ 80
24,CCc1nn(-c2cccc(Cl)c2Cl)c(=O)c(-n2ccc(C(F)(F)F)n2)c1O [2-8],≥ 80
25,CCc1nn(-c2cccc(C(F)(F)F)c2C)c(=O)c(-n2ccc(C(F)(F)F)n2)c1O [2-9],≥ 80

row,Compound,mortality [%]
1,CCc1nn(-c2cccc(Cl)c2C(F)(F)F)c(=O)c(-n2ccc(C(F)(F)F)n2)c1O [2-11],≥ 80
2,CCc1nn(-c2ccc(Cl)cc2Cl)c(=O)c(-n2ccc(C(F)(F)F)n2)c1O [2-13],≥ 80
3,CCc1nn(-c2ccc(C(F)(F)F)cc2Br)c(=O)c(-n2ccc(C(F)(F)F)n2)c1O [2-14],≥ 80
4,CCc1nn(-c2ccc(C(F)(F)F)cc2C)c(=O)c(-n2ccc(C(F)(F)F)n2)c1O [2-15],≥ 80
5,CCc1nn(-c2ccc(F)cc2Cl)c(=O)c(-n2ccc(C(F)(F)F)n2)c1O [2-18],≥ 80
6,CCc1nn(-c2ccc(Br)cc2Cl)c(=O)c(-n2ccc(C(F)(F)F)n2)c1O [2-19],≥ 80
7,CCc1nn(-c2ccc(Cl)cc2I)c(=O)c(-n2ccc(C(F)(F)F)n2)c1O [2-23],≥ 80
8,CCc1nn(-c2ccc(I)cc2Cl)c(=O)c(-n2ccc(C(F)(F)F)n2)c1O [2-24],≥ 80
9,CCc1nn(-c2ccc(Cl)cc2F)c(=O)c(-n2ccc(C(F)(F)F)n2)c1O [2-25],≥ 80
10,CCc1nn(-c2ccc(C(F)(F)F)cc2C(F)(F)F)c(=O)c(-n2ccc(C(F)(F)F)n2)c1O [2-26],≥ 80
11,CCc1nn(-c2ccc(Cl)cc2C(F)(F)F)c(=O)c(-n2ccc(C(F)(F)F)n2)c1O [2-27],≥ 80
12,CCc1cc(C(F)(F)F)ccc1-n1nc(CC)c(O)c(-n2ccc(C(F)(F)F)n2)c1=O [2-29],≥ 80
13,CCc1nn(-c2ccc(OC(F)(F)F)cc2C)c(=O)c(-n2ccc(C(F)(F)F)n2)c1O [2-32],≥ 80
14,CCc1nn(-c2ccc(OC(F)(F)F)cc2Cl)c(=O)c(-n2ccc(C(F)(F)F)n2)c1O [2-36],≥ 80
15,CCc1nn(-c2ccc(C(F)(F)F)cc2OC)c(=O)c(-n2ccc(C(F)(F)F)n2)c1O [2-37],≥ 80
16,C=C(C)c1cc(C(F)(F)F)ccc1-n1nc(CC)c(O)c(-n2ccc(C(F)(F)F)n2)c1=O [2-38],≥ 80
17,CCc1nn(-c2ccc(C(F)(F)F)cc2C(C)C)c(=O)c(-n2ccc(C(F)(F)F)n2)c1O [2-40],≥ 80
18,CCc1nn(-c2ccc(C(F)(F)F)cc2F)c(=O)c(-n2ccc(C(F)(F)F)n2)c1O [2-41],≥ 80
19,CCc1nn(-c2cc(Cl)ccc2Cl)c(=O)c(-n2ccc(C(F)(F)F)n2)c1O [2-46],≥ 80
20,CCc1nn(-c2cc(C(F)(F)F)ccc2Cl)c(=O)c(-n2ccc(C(F)(F)F)n2)c1O [2-48],≥ 80
21,CCc1nn(-c2cc(Br)ccc2Br)c(=O)c(-n2ccc(C(F)(F)F)n2)c1O [2-49],≥ 80
22,CCc1nn(-c2cc(F)ccc2F)c(=O)c(-n2ccc(C(F)(F)F)n2)c1O [2-50],≥ 80
23,CCc1nn(-c2cc(C)ccc2Cl)c(=O)c(-n2ccc(C(F)(F)F)n2)c1O [2-51],≥ 80
24,CCc1nn(-c2cc(Cl)ccc2C)c(=O)c(-n2ccc(C(F)(F)F)n2)c1O [2-52],≥ 80
25,CCc1nn(-c2cc(F)ccc2Br)c(=O)c(-n2ccc(C(F)(F)F)n2)c1O [2-54],≥ 80

row,Compound,mortality [%]
1,CCc1nn(-c2cc(F)ccc2Cl)c(=O)c(-n2ccc(C(F)(F)F)n2)c1O [2-55],≥ 80
2,CCc1nn(-c2cc(OC(F)(F)F)ccc2Cl)c(=O)c(-n2ccc(C(F)(F)F)n2)c1O [2-56],≥ 80
3,CCc1nn(-c2cc(Br)ccc2F)c(=O)c(-n2ccc(C(F)(F)F)n2)c1O [2-57],≥ 80
4,CCc1nn(-c2cc(Br)ccc2Cl)c(=O)c(-n2ccc(C(F)(F)F)n2)c1O [2-59],≥ 80
5,CCc1nn(-c2cc(Cl)ccc2I)c(=O)c(-n2ccc(C(F)(F)F)n2)c1O [2-60],≥ 80
6,CCc1nn(-c2cc(I)ccc2Br)c(=O)c(-n2ccc(C(F)(F)F)n2)c1O [2-63],≥ 80
7,CCc1nn(-c2c(Cl)cccc2C(F)(F)F)c(=O)c(-n2ccc(C(F)(F)F)n2)c1O [2-67],≥ 80
8,CCc1nn(-c2ccc(Cl)c(Cl)c2)c(=O)c(-n2ccc(C(F)(F)F)n2)c1O [2-68],≥ 80
9,CCc1nn(-c2ccc(C(F)(F)F)c(F)c2)c(=O)c(-n2ccc(C(F)(F)F)n2)c1O [2-69],≥ 80
10,CCc1nn(-c2ccc(C(F)(F)F)c(Cl)c2)c(=O)c(-n2ccc(C(F)(F)F)n2)c1O [2-70],≥ 80
11,CCc1nn(-c2cc(Cl)cc(Cl)c2)c(=O)c(-n2ccc(C(F)(F)F)n2)c1O [2-72],≥ 80
12,CCc1nn(-c2cc(Cl)ccc2C(F)(F)F)c(=O)c(-n2ccc(C(F)(F)F)n2)c1O [2-74],≥ 80
13,CCc1nn(-c2ccc(F)c(F)c2C)c(=O)c(-n2ccc(C(F)(F)F)n2)c1O [2-75],≥ 80
14,CCc1nn(-c2cc(Cl)cc(Cl)c2Cl)c(=O)c(-n2ccc(C(F)(F)F)n2)c1O [2-76],≥ 80
15,CCc1nn(-c2cc(Cl)c(Cl)cc2Cl)c(=O)c(-n2ccc(C(F)(F)F)n2)c1O [2-78],≥ 80
16,CCc1nn(-c2cc(F)c(Br)cc2F)c(=O)c(-n2ccc(C(F)(F)F)n2)c1O [2-79],≥ 80
17,CCc1nn(-c2cc(F)c(F)cc2F)c(=O)c(-n2ccc(C(F)(F)F)n2)c1O [2-80],≥ 80
18,CCc1nn(-c2cc(F)c(Cl)cc2F)c(=O)c(-n2ccc(C(F)(F)F)n2)c1O [2-81],≥ 80
19,CCc1nn(-c2cc(F)c(Br)cc2I)c(=O)c(-n2ccc(C(F)(F)F)n2)c1O [2-82],≥ 80
20,CCc1nn(-c2cc(F)c(F)cc2I)c(=O)c(-n2ccc(C(F)(F)F)n2)c1O [2-83],≥ 80
21,CCc1nn(-c2cc(Br)c(C(F)(F)F)cc2I)c(=O)c(-n2ccc(C(F)(F)F)n2)c1O [2-84],≥ 80
22,CCc1nn(-c2cc(Br)c(F)cc2Br)c(=O)c(-n2ccc(C(F)(F)F)n2)c1O [2-85],≥ 80
23,CCc1nn(-c2cc(Cl)c(Cl)cc2F)c(=O)c(-n2ccc(C(F)(F)F)n2)c1O [2-86],≥ 80
